Experimental data published in patent publication US20060106064A1, “Butyrophenones and sigma-1 receptor antagonists protect against oxidative-stress” (University of North Texas Health Science Center at Fort …, priority 2004, published 2006).
Like-named read-outs stand apart in the source and are kept apart here.

System: HT-22 cells
Experiment: in vitro protection assay, glutamate-induced oxidative stress HT-22 cell model (Calcein AM cell survival)
Details: Mus musculus
[1] = HT-22, read-out: Potency (EC50 ± SEM, nM)

SMILES | EC50 [1] [nM] | EC50 (HT-22, read-out: In vitro Protective Potency (EC50 ± SEM, nM)) [nM] | EC50 (HT-22, read-out: Potency (EC50 ± SEM nM)) [nM]
Clc1ccc2c(c1)C(N1CCNCC1)=Nc1ccccc1O2 [Amoxapine] | > 1000 | – | –
CN1CCN(C2=Nc3cc(Cl)ccc3Nc3ccccc32)CC1 [Clozapine] | > 1000 | – | –
O=C(CCCN1CCC(O)(c2ccc(Cl)cc2)CC1)c1ccc(F)cc1 [Haloperidol, 4-[4-(4-chlorophenyl)-4-hydroxy-1-piperidyl]-1-(4-fluorophenyl)-butan-1-one] | 1.2 ± 0.4 | 1.2 ± 0.4 | 1.2 ± 0.4
CSc1ccc2c(c1)N(CCC1CCCCN1C)c1ccccc1S2 (stereo not drawn) [Thioridazine] | > 1000 | – | –
